These are yes or no findings as the source states them, for the method shown. Some results given as binding are weak or reduced against the parent protein; the word gives no strength.
What was measured:
[1] = target: Ga derived 12-mer peptide … (SEQ ID NO:9) (respiratory syncytial virus, strain A (A2)); test: peptide array, 131-2G at 1 µg/ml, chemiluminescence
[2] = target: RSV G protein of strain A (Ga protein) (respiratory syncytial virus, strain A (A2)) (UniProt P03423); test: reactivity column of Table 1

The chains behind the UniProt entries cited, without tags or fusion partners. Residues count along the entry.
UniProt P03423, residues 66-298: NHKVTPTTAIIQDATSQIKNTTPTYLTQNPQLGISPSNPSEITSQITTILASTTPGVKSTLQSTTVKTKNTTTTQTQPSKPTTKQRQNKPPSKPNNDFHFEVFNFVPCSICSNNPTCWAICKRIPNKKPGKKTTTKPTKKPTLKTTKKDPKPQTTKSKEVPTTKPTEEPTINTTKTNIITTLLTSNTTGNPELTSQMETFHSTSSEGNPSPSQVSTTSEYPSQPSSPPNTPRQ

Row | Binder | binding [1] | binding [2]
1 | murine monoclonal antibody 131-2G (antibody, V domains shown) VH: EVQLQQSGPELVKPGTSVKISCKASGYSFTGFTMNWVKQSHGKNLEWFGLINPFNGNTGYNQKFKGKATLTVDKSSSTAFMELLSLTSEDSAVYYCARSGKSYDYEAWFTYWGQGTLVTVSA VL: DIVMTQTTLSLPVSLGNQASISCRSSQTIVHTNGNTYLEWYLQKPGQSPKLLIYKVSNRFSGVPDRFSGSGSGTDFILNISRVEAEDLGVYYCFQGSHVPFTFGSGTKLEIKR | binds | –
2 | human monoclonal antibody 2D10 (antibody, V domains shown) VH: QVQLVQSGPEVKKPGASVRLSCKASGYVFTNYGVSWVRQAPGQGLEWMGWSSPYNGNTYYAQKLKARVTMTTDTSTNTAYMELRSLRSDDTAVYYCGRDMLGVVQAVAGPFDSWGQGTLVTVSS VL: DTPMTQSPSSVSASVGDRVTISCRASQGISNSLAWYQQKLGKAPQLLIYAASSLQSGVPSRFSGSGSGTDFTLTISSLQPEDFATYYCQQTNTFPFTFGPGTKVEVR | – | binds
